{
  "sequences": {"note": "Amino acid sequences for entries named in this document (tags omitted). Residues count along the entry.", "UniProt P10451, residues 17-314": "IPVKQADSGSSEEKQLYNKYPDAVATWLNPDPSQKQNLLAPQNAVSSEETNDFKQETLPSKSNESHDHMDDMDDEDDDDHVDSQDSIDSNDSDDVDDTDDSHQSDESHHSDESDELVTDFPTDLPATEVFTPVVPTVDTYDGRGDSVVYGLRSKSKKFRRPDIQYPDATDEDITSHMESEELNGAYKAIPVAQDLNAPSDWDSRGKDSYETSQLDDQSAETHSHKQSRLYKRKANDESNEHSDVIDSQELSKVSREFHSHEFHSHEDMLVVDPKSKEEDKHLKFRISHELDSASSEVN", "UniProt P08670": "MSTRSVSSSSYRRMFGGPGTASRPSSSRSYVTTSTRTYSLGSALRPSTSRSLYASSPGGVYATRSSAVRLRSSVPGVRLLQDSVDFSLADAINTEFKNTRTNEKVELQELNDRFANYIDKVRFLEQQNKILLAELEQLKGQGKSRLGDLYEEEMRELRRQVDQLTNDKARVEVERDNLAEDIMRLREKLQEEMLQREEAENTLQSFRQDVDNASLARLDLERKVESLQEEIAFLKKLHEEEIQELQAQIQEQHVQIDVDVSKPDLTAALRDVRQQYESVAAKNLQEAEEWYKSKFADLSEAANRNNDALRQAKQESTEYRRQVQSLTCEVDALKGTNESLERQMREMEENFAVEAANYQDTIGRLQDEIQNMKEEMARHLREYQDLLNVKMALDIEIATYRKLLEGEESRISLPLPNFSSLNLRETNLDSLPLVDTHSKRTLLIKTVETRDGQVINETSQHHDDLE"},
  "source": "paper PMC4914337",
  "biological_target": "Flag-OPN (osteopontin) produced in Hep3B cells (UniProt P10451)",
  "experiment": "affinity purification with mass spectrometry; Flag-OPN expressed in Hep3B cells (empty vector as control); lysate in RIPA buffer on M2 anti-Flag mAb agarose beads; SDS-PAGE, Coomassie blue staining, band of interest cut out for MS",
  "note": "Results are given in words; binding and its absence hold for the method and conditions named. Binding seen in cells or lysates may run through a third protein. A yes stands for co-enrichment or nearness to the bait. Other partners may have been found.",
  "data": [
    {"substance": "vimentin, endogenous in Hep3B cells (from UniProt P08670 1-466)", "values": [
      {"measurement": "binding", "result": "binds"}
    ]}
  ]
}
